Source: patent publication US20220251185A1 (VALITOR, published 2022)
Results are given in words; binding and its absence hold for the method and conditions named. Some results given as binding are weak or reduced against the parent protein; the word gives no strength.

By UniProt entry, the sequences of proteins in these tests, tags left out. Where a name states a change or a piece, a line headed by the entry shows the natural chain unless it says otherwise. Chains listed by the source or under a name are the forms on record and can include a tag or linker.
VEGF (biotinylated target on streptavidin BLI probe) (P15692, form named): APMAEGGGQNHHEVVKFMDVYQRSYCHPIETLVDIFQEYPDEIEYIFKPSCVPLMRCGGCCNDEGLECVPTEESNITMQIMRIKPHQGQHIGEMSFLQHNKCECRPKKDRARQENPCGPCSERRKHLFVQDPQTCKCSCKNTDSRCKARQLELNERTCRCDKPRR

Target: VEGF (biotinylated target on streptavidin BLI probe) (UniProt P15692)
Assay: anti-VEGF potency as kd (nM); assay not given, Example 6 describes BLI on biotinylated target

B1: E1-1 (VHH)
VHH: EVQLQASGGGFVQPGGSLRLSCAASGGGSDAGTMGWFRQAPGKEREFVSAISWAGTAWRYYADSVKGRFTISRDNSKNTVYLQMNSLRAEDTATYYCALGSYEMDHHYWGQGTQVTVSS
- binding: binds
